Binding data for one molecule are collected here from paper PMC3760765, “A Meiosis-Specific Form of the APC/C Promotes the Oocyte-to-Embryo Transition by Decreasing Levels of the Polo Kinase Inhibitor Matrimony” (PLoS Biology, 2013).

This assay deals with T1, myc-tagged Cort expressed in ovaries (UASp-myc-cort transgene) (Drosophila melanogaster) (UniProt Q960N3).
T1 sequence: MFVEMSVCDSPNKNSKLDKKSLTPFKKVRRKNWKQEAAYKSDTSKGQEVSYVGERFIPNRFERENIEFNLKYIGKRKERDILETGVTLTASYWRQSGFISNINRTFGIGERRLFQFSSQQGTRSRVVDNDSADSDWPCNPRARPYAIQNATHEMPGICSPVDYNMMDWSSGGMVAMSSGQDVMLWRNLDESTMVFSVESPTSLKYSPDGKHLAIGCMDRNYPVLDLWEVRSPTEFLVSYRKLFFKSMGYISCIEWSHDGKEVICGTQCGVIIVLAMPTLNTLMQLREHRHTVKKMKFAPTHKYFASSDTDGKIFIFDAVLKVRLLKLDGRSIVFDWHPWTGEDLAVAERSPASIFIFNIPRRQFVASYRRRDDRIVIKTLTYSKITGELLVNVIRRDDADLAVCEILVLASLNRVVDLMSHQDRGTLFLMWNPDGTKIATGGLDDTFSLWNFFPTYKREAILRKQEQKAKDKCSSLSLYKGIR
As to the kind of experiment: affinity purification with mass spectrometry; myc-Cort immunoprecipitated with anti-Myc 9E10 on Protein G magnetic beads from whole ovary extract, 3 h at 4°C; washes incl. IP buffer + 0.5 M NaCl; bands cut from silver-stained gel, LC-MS/MS; controls random mouse IgG or OrR ovaries.

These are yes or no findings as the source states them, for the method shown. Binding seen in cells or lysates may run through a third protein. A yes stands for co-enrichment or nearness to the bait. Other partners may have been found. Tags and fused reporters may be left off the sequences shown.

B1: Matrimony (Mtrm), endogenous in ovaries (protein, UniProt Q23973 1-217)
chain: MENSRTPTNKTKITLNRTPTLKERRWNTLKVNTSNVRCSTPIFGNFRSPNLSPIENMGTKGKSPVSPMRFATFKKVPTKVHPKQQQQQQHQHCHRTQLKPPPFVLPKPQEEIIEPEREIKSCSSPDTCSDDSNMETSLALESRRRSIKASNHSYVVNHAANVEQILMHMGLENYVTNFEEAHIDLVELASLERADLVKIGLNTDEDCNRIMDVLHTL
With B1, the binding result is on record as “binds”.
